# About 170 (0.05%) of roughly 340,000 compounds were called active. This list was built around the results that the source calls inconclusive (neither active nor inactive); the mix of calls is not that of the screen. Calls come from the whole dose curve; as a rule, active = well fitted inhibition curve with a large enough effect in the signal ratio, with a control signal flat (not every such curve was filed as active); inconclusive = small, poorly fitted or top-dose-only effect, or effect the other way, or a change in a side signal; inactive = flat fitted curve, though single readings scatter; the % refers to the signal ratio. A potency beside an inconclusive call is a rough fit, not a confirmed value.
# Assay: qHTS Assay to Find Inhibitors of Chronic Active B-Cell Receptor Signaling;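 for activity change, negative = inhibition: plate controls were basal doxycycline-induced cells for no effect and cells given 10 µM MG132 for full effect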
# Details: ABC-DLBCL IkBa-CBG/CBR reporter, luminescence ratio (green luciferase fused to IkBa over red control in TMD8 lymphoma cells), 4 h; activity change, negative = inhibition: at 46.1 µM (top of the series)
# In short: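 TMD8 ABC-DLBCL cells carrying doxycycline-inducible green luciferase fused to IkappaBalpha plus unfused red luciferase were exposed to compounds (up to 46 uM) for 4 hrs at 37C. Activity came from the overlap-corrected green/red luminescence ratio.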
# Potency is the fitted concentration of half-maximal effect.
SMILES,Potency,"activity change, negative = inhibition"
Cc1ccc(/C=N/NC(=O)c2ccc(Br)o2)s1,"inconclusive: 18.4 µM [falling, partial curve, poor fit]",
COc1ccc(Nc2cc(C(=O)NCCCN3CCN(C)CC3)c3ccccc3n2)cc1,,inconclusive: 6.29%
COc1ccc(NC(=O)CSC(C)c2nc3ccccc3c(=O)[nH]2)cc1 (stereo unspecified),,inactive
Cc1ccc(NC(=O)c2ccc(NS(=O)(=O)c3c(C)noc3C)cc2)cc1C,,inconclusive: 12.9%
CC(=O)O/N=C1\C(=O)N(Cc2ccc(C)cc2)c2ccccc21,"inconclusive: 0.224 µM [falling, full curve, poor fit]",
Cc1cccc(-n2cnc3cc(C(=O)NC4CCCCCC4)ccc32)c1,"inconclusive: 15.8 µM [falling, single point]",
O=C(COC(=O)Cc1ccsc1)NCc1ccccc1,"inconclusive: 32.6 µM [falling, partial curve, poor fit]",
O=C(OCC(=O)N1CCc2ccccc21)c1ccncc1,,inconclusive: -1.46%
COc1cccc(CNc2ccc3[nH]c(=O)[nH]c3c2)c1OCc1ccc(F)cc1,,inactive
O=C(CCCNS(=O)(=O)c1cccc2nsnc12)NC1CCCCC1,"inconclusive: 22.4 µM [falling, single point]",
CO[C@@H]1O[C@@H]2COC(c3ccccc3)O[C@@H]2[C@@H](OC)[C@@H]1O (stereo partly specified),,inconclusive: 11.7%
COc1ccc(N2CCN(Cc3cc4c(cc3O)CCC4)CC2)cc1,,inactive
CCN(CC)c1ccc2nc3c4ccccc4c(=O)cc-3oc2c1,,inactive
COc1cc(C(=O)NNC(=O)c2ccc3ccccc3n2)cc(OC)c1OC,,inconclusive: 3.92%
COc1ccc2c(CC(=O)Nc3ccc(OC)c(NS(=O)(=O)c4ccc(F)cc4)c3)coc2c1,"inconclusive: 29.1 µM [falling, single point]",
NC(=O)Nc1ccc(C(=O)OCC(=O)NC2CCCc3ccccc32)cc1 (stereo unspecified),,inconclusive: -0.714%
Cc1ccc(C(=O)NC(=O)CSc2ncccc2C(=O)O)cc1,"inconclusive: 22.4 µM [falling, single point]",
COc1ccc(C(=O)NNC(=S)NC(=O)c2cc(-c3ccccc3)nc3ccccc23)cc1,,inactive
O=C(COC(=O)c1ccc([N+](=O)[O-])s1)Nc1ccccc1,,inactive
Cc1cc(C)c(OCC(=O)N/N=C/c2ccco2)c(C)c1,,inconclusive: 4.56%
CCNc1nc(CN2CCOCC2)nc2sc3c(c12)CCC3,,inconclusive: -0.955%

SMILES,Potency,"activity change, negative = inhibition"
O=C(c1sc2ccccc2c1Cl)N(Cc1ccccc1)C1CCS(=O)(=O)C1 (stereo unspecified),,inconclusive: 10.7%
CC(Oc1ccccc1)c1ccnn1S(C)(=O)=O (stereo unspecified),,inconclusive: 20.1%
CC(=O)N1CCN(c2ccc(OC[C@H]3CO[C@](Cn4ccnc4)(c4ccc(Cl)cc4Cl)O3)cc2)CC1,,inactive
COc1cccc(/C=N/NC(=O)c2cc(-c3ccccn3)nc3ccccc23)c1O,"inconclusive: 3.66 µM [falling, partial curve, poor fit]",
Cn1c(O)c(/C=N/Nc2ccccc2)c(=O)n(C)c1=O,,inactive
COc1ccc(CC(NC(C)=O)C(=O)NC2CCN(S(=O)(=O)c3ccc(NC(C)=O)cc3)CC2)cc1OC (stereo unspecified),,inconclusive: 6.66%
O=C(NC1CCCCC1)c1ccc(N2CCCC2=O)cc1,"inconclusive: 35.5 µM [falling, single point]",
CCOC(=O)C(=O)Nc1ccc(OC)c(Cl)c1,,inconclusive: 8.12%
Nc1c(C(=O)Nc2ccccc2)sc2nc(-c3ccco3)ccc12,,inconclusive: 12.2%
O=C(Nc1ccc(CN2CCOCC2)cc1)c1ccc(-c2cccc([N+](=O)[O-])c2)o1,,inactive
CCn1cnc2cc(NC(=O)c3ccco3)ccc21,"inconclusive: 4.61 µM [falling, single point]",
CCCNC(=O)CS(=O)Cc1nc(-c2ccccc2C)oc1C (stereo unspecified),,inconclusive: 7.82%
COC(=O)[C@@H]1CCCN1C(=O)CCc1nnc(CCc2c[nH]c3ccccc23)o1,"inconclusive: 12.6 µM [rising, partial curve, poor fit]",
CSc1ccc(CN2CCCC(CO)(Cc3ccccc3)C2)cc1 (stereo unspecified),,inactive
Cc1ccc(OCC(=O)NC(=S)Nc2cccc(NC(=O)c3ccccc3)c2)cc1,,inconclusive: -18.6%
O=C(Nc1ccc(Br)cn1)C1CCN(S(=O)(=O)c2cccs2)CC1,"inconclusive: 2 µM [rising, full curve, poor fit]",
COc1cccc(C(=O)Nc2nnc(-c3ccccc3)s2)c1,"inconclusive: 7.94 µM [falling, partial curve]",
O=C(Nc1ccc(N2CCOCC2)cc1)C1CCN(S(=O)(=O)Cc2ccccc2)CC1,,inconclusive: 9.46%
O=C(Cn1c(-c2ccccc2)c[n+]2ccsc12)c1ccccc1,,inconclusive: 10.8%
Cc1c(Cl)cccc1NC(=O)c1cc(-c2ccco2)on1,"inconclusive: 22.4 µM [falling, partial curve, poor fit]",
COc1ccc2nc(NC(=O)c3cccnc3SC)sc2c1,"inconclusive: 23.1 µM [falling, partial curve]",

# Shown with tabs: entries from further up.
SMILES	Potency	activity change, negative = inhibition
Cn1c(O)c(/C=N/Nc2ccccc2)c(=O)n(C)c1=O		inactive
COc1ccc(CC(NC(C)=O)C(=O)NC2CCN(S(=O)(=O)c3ccc(NC(C)=O)cc3)CC2)cc1OC (stereo unspecified)		inconclusive: 6.66%
O=C(NC1CCCCC1)c1ccc(N2CCCC2=O)cc1	inconclusive: 35.5 µM [falling, single point]	
CCOC(=O)C(=O)Nc1ccc(OC)c(Cl)c1		inconclusive: 8.12%
Nc1c(C(=O)Nc2ccccc2)sc2nc(-c3ccco3)ccc12		inconclusive: 12.2%
O=C(Nc1ccc(CN2CCOCC2)cc1)c1ccc(-c2cccc([N+](=O)[O-])c2)o1		inactive
CCn1cnc2cc(NC(=O)c3ccco3)ccc21	inconclusive: 4.61 µM [falling, single point]	
CCCNC(=O)CS(=O)Cc1nc(-c2ccccc2C)oc1C (stereo unspecified)		inconclusive: 7.82%
COC(=O)[C@@H]1CCCN1C(=O)CCc1nnc(CCc2c[nH]c3ccccc23)o1	inconclusive: 12.6 µM [rising, partial curve, poor fit]	
CSc1ccc(CN2CCCC(CO)(Cc3ccccc3)C2)cc1 (stereo unspecified)		inactive
Cc1ccc(OCC(=O)NC(=S)Nc2cccc(NC(=O)c3ccccc3)c2)cc1		inconclusive: -18.6%
O=C(Nc1ccc(Br)cn1)C1CCN(S(=O)(=O)c2cccs2)CC1	inconclusive: 2 µM [rising, full curve, poor fit]	
COc1cccc(C(=O)Nc2nnc(-c3ccccc3)s2)c1	inconclusive: 7.94 µM [falling, partial curve]	
O=C(Nc1ccc(N2CCOCC2)cc1)C1CCN(S(=O)(=O)Cc2ccccc2)CC1		inconclusive: 9.46%
O=C(Cn1c(-c2ccccc2)c[n+]2ccsc12)c1ccccc1		inconclusive: 10.8%
Cc1c(Cl)cccc1NC(=O)c1cc(-c2ccco2)on1	inconclusive: 22.4 µM [falling, partial curve, poor fit]	

# Further compounds:

SMILES,Potency,"activity change, negative = inhibition"
O=c1[nH]c2cc3c(cc2cc1CN(CCCO)C(=S)NCc1ccco1)OCO3,"inconclusive: 35.5 µM [falling, single point]",
COc1ccc(S(=O)(=O)N(CC(=O)NC2CCCC2)c2ccccc2OC)cc1,,inconclusive: -0.764%
Cc1c(C(=O)Nc2ccc(-c3nnc4n3CCCCC4)cc2)oc2ccc(Br)cc12,,inconclusive: 1.32%
Cc1ccc(C)c(OCc2cc(C(=O)N3CC[C@H](O)C3)no2)c1,,inactive
O=C(OCc1cccc(F)c1)c1cc2ccccc2cc1O,,inconclusive: 10.9%
CC1CCCN(CCC(=O)Nc2ccc(Br)cc2)C1 (stereo unspecified),,inactive
CN1CCN(S(=O)(=O)c2cccc(C(=O)Nc3nc(-c4ccccc4)cs3)c2)CC1,"inconclusive: 0.231 µM [rising, full curve, poor fit]",
COc1cc(OC)cc(C(=O)NC(C(=O)Nc2ccc3c(c2)OCCO3)C(C)C)c1 (stereo unspecified),"inconclusive: 25.9 µM [falling, partial curve, poor fit]",
COc1ccc(C(=O)N2CCN(c3nc4c(C)c(Cl)ccc4s3)CC2)c(OC)c1,,inactive
CCOC(=O)C1CCCN(C(=O)CSc2nnc3nc(C)cc(C)n23)C1 (stereo unspecified),,inactive
COc1cccc(CNc2ccccc2O)c1OCc1ccccc1F,"inconclusive: 17.8 µM [falling, single point]",
CCn1nc(NS(=O)(=O)c2ccc(NC(C)=O)cc2)c2cc3ccccc3nc21,,inconclusive: 3.87%
CC(C)CN1C(=O)/C(=C/c2c(N3CCc4ccccc4C3)nc3ccccn3c2=O)SC1=S,,inconclusive: 15%
O=C(N/N=C/c1ccc(O)cc1O)c1ccc(CN2C(=O)c3cccc4cccc2c34)cc1,"inconclusive: 11.2 µM [falling, partial curve]",
CC(C)CN(CC(C)C)C(=O)Nc1cccc([N+](=O)[O-])c1,,inconclusive: 4.15%
CCC1(CC)NC(=O)N(CC(=O)OCC(=O)Nc2ccc(OC(F)(F)F)cc2)C1=O,,inactive
O=S(=O)(Cc1cc(Cl)nc(-c2cccnc2)n1)c1ccccc1,,inconclusive: -6.96%
O=C(COc1ccc(S(=O)(=O)NC2CCCCC2)cc1Cl)Nc1ccc2c(c1)OCO2,,inconclusive: -1.94%
COc1ccc(CN(C)C(C)C(=O)Nc2ccc(S(=O)(=O)N3CCCCC3)cc2)cc1F (stereo unspecified),,inactive
O=Nc1[nH]c(=O)c(/C=C(\O)c2ccccc2)nc1NO,"inconclusive: 35.5 µM [falling, single point]",
COc1cc(-c2nnn(Cc3ccccc3C)n2)cc(OC)c1OC,,inactive

SMILES,Potency,"activity change, negative = inhibition"
COc1ccccc1/C=C/C=N/n1c(COc2ccccc2)n[nH]c1=S,,inactive
O=S(=O)(c1ccccc1)N1CN(c2ccc(F)cc2F)c2nc3ccccc3nc21,,inactive
Cc1ccc(OCCC(=O)NNC(=O)c2nn(C)c(=O)c3ccccc23)cc1,,inactive
O=C(Nc1ccccc1)Nc1cc(OCC(F)(F)F)cc(OCC(F)(F)F)c1,,inconclusive: 0.574%
Cn1cccc1/C=N/NC(=O)C(O)c1ccccc1 (stereo unspecified),"inconclusive: 35.5 µM [falling, single point]",
N/C(=N\OC(=O)c1cccc(Cn2cc(C(F)(F)F)ccc2=O)c1)c1ccc(Cl)cc1,,inactive
CC(C)c1ccc2[nH]c3nc(SCC(=O)NC4CC4)nnc3c2c1,,inconclusive: 6.78%
Cc1ccccc1OCC(=O)N/N=C/c1ccc2c(c1)OCCO2,,inactive
Cc1cc(C)nc(SCc2nnc(SCC(=O)Nc3ccc(Cl)c(C(F)(F)F)c3)o2)n1,,inconclusive: 13.9%
COc1cccc(-c2ccc3c(N)c(C(=O)Nc4ccccc4C)sc3n2)c1,,inconclusive: 17%
C/C(=N/OC(=O)CC(C)C)c1cc(-c2ccc(Cl)cc2)no1,,inconclusive: 3.49%
Nc1ccc(-c2c3ccc(=O)cc-3oc3cc(O)ccc23)c(C(=O)O)c1,,inactive
Cc1ccc(-c2cc3nc(C)cc(NCc4ccco4)n3n2)cc1,"inconclusive: 15.8 µM [falling, partial curve]",
Cc1cc2nc(-c3ccc(SCc4ccccc4C#N)nc3)[nH]c2cc1C,,inactive
CCSc1nnc(NC(=O)CSc2c(Cl)cccc2Cl)s1,,inactive
CCc1nnc(NS(=O)(=O)c2ccc(NC(=O)c3ccccc3C)cc2)s1,,inconclusive: -11.6%
Cc1cc(C)cc(OCCn2ccnc2)c1,,inactive
O=C(NNC(=O)c1ccc(-c2ccc([N+](=O)[O-])cc2)o1)c1ccncc1,,inconclusive: 5.88%

# — PubChem BioAssay AID493014 (National Center for Advancing Translational Sciences (NCATS), 2011)
